In paper PMC11765556, “Cytosine Methylation Changes the Preferred Cis-Regulatory Configuration of Arabidopsis WUSCHEL-Related Homeobox 14”:
No signal at the amounts used counts as a negative. Where a protein sequence is shown, tags need not be part of it.

Biological target: T1, AtWOX14 (homodimer on DNA) (Arabidopsis thaliana) (UniProt Q9LM84)
T1 sequence (looked up): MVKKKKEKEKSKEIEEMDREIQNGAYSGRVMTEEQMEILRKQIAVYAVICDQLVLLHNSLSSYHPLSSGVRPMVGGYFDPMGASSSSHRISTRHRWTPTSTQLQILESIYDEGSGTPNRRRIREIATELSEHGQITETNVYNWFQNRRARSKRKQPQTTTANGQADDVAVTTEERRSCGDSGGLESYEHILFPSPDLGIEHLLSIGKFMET
Test: EMSA
Settings: 50-200 nM WOX14, no dimeric shift; EMSA: 10 mM Tris (pH not stated), 50 mM NaCl, 1 mM MgCl2, 4% glycerol, 0.5 mM EDTA, 25 C 40 min, 30 ng probe in 20 uL; 6% native PAGE, 0.5x TBE, 4 C; recombinant protein; residues 1-211; protein details: N-terminal His (pETG20A-His)

ATGCTAGCTCCATCTGTATTGATTGTTTATGGCGGTGACGTACT (double strand) [M1]
binding result: no binding
